Reference: the M2OR odorant receptor database
Only a part is listed here, and it is no random draw. The calls were merged from several studies; some rest on single wells. The list shows a part of the results.

How the values were obtained:
Details in all cases: stereoisomer not certain
OR6B1 = tested on: T1, OR6B1
T1 sequence (whole entry): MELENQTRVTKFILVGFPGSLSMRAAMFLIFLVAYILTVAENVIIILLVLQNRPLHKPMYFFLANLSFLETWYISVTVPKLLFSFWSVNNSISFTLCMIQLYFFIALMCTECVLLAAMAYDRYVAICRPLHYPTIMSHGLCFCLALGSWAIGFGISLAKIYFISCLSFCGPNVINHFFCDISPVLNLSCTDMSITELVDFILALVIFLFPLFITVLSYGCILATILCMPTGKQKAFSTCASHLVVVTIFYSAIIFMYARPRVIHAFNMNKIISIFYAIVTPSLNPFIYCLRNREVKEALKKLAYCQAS
In short: (§1)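 Whether a receptor–molecule pair is responsive (active) rests on the original authors' judgment that its measured signal was statistically different from baseline. Pairs without that judgment are non-responsive (inactive). Sources used varied assay methods, commonly transient luciferase assays in mammalian cell lines.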

OR6B2 = tested on: T2, OR6B2
T2 sequence (whole entry): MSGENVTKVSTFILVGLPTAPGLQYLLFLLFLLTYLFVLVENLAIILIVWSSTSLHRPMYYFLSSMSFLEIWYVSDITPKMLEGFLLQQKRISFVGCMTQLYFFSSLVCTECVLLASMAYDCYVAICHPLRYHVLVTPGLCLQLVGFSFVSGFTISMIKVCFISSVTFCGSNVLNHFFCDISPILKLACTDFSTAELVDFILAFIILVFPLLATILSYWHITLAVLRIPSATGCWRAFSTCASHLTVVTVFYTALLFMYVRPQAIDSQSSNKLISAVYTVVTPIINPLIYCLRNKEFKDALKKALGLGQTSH
In short: as §1

OR6B3 = tested on: T3, OR6B3
T3 sequence (whole entry): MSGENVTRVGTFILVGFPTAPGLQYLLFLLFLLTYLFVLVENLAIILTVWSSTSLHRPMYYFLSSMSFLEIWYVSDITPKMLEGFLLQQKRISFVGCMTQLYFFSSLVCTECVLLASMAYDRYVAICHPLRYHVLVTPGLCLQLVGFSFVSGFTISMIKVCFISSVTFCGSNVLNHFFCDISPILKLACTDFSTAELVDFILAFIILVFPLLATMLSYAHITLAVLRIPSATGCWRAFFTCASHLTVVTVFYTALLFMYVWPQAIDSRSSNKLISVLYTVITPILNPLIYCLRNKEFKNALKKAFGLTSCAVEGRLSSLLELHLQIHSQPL
In short: as §1

OR6C1 = tested on: T4, OR6C1
T4 sequence (whole entry): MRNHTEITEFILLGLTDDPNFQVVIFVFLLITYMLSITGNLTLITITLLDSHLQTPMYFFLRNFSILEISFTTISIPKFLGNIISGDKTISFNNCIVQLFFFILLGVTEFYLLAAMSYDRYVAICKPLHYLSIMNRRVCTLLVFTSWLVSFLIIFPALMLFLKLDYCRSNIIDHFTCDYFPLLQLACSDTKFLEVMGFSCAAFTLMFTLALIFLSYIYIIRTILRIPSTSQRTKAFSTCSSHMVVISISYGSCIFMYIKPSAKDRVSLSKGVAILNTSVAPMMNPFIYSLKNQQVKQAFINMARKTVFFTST
In short: as §1

OR6C2 (Homo sapiens) = molecular target: T5, OR6C2 (Homo sapiens) (UniProt Q9NZP2)
T5 sequence (whole entry): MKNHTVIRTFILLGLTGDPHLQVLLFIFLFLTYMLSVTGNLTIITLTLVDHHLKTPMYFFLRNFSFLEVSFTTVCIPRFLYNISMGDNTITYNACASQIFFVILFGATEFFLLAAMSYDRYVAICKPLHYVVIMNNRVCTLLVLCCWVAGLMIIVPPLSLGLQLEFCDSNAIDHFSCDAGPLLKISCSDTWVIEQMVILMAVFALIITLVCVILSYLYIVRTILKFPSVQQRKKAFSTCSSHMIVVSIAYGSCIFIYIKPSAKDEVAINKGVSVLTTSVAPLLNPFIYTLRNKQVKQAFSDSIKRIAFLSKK
In short: as §1

OR6C3 (Homo sapiens) = molecular target: T6, OR6C3 (Homo sapiens) (UniProt Q9NZP0)
T6 sequence (whole entry): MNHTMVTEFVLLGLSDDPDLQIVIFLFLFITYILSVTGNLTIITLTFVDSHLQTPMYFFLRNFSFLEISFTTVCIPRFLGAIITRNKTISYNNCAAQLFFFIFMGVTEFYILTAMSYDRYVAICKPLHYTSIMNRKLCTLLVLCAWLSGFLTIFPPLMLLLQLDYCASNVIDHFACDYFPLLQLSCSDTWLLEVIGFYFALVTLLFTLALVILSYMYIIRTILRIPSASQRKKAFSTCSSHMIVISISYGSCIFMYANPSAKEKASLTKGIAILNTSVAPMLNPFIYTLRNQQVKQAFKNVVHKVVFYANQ
In short: as §1

OR6C4 = tested on: T7, OR6C4
T7 sequence (whole entry): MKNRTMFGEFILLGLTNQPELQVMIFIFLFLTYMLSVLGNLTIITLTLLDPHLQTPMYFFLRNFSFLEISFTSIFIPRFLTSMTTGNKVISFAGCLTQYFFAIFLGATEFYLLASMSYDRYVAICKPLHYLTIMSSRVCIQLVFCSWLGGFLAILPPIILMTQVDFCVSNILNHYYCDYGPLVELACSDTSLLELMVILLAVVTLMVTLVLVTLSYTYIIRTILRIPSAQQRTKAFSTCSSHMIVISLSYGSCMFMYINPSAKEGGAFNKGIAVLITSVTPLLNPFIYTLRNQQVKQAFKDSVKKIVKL
In short: as §1

OR6C6 (Homo sapiens) = molecular target: T8, OR6C6 (Homo sapiens) (UniProt A6NF89)
T8 sequence (whole entry): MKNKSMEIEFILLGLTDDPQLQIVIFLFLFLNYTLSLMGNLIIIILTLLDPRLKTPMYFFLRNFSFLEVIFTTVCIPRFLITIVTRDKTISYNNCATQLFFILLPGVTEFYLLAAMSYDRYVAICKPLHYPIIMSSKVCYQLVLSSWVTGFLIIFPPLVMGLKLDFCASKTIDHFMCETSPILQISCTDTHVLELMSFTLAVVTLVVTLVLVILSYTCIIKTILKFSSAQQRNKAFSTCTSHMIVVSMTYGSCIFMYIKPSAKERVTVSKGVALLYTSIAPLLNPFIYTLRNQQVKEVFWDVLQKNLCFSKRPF
In short: as §1

OR6C65 (Homo sapiens) = molecular target: T9, OR6C65 (Homo sapiens) (UniProt A6NJZ3)
T9 sequence (whole entry): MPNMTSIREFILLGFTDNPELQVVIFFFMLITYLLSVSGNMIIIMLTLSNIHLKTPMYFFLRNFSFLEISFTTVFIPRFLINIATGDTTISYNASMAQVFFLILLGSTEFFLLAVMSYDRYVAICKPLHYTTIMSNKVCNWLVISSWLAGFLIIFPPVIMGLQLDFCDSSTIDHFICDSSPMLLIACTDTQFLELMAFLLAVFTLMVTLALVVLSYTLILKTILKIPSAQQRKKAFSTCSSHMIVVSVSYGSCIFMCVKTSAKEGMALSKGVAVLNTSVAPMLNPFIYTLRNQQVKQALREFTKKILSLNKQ
In short: as §1

OR6C74 (Homo sapiens) = molecular target: T10, OR6C74 (Homo sapiens) (UniProt A6NCV1)
T10 sequence (whole entry): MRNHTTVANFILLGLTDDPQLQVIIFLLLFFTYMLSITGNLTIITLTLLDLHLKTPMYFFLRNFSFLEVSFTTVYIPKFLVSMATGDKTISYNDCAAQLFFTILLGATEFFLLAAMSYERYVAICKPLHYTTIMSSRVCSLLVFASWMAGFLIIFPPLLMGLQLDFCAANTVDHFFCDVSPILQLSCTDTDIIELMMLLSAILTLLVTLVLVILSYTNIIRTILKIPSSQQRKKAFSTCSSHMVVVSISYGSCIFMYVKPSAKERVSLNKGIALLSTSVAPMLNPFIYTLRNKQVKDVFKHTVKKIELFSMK
In short: as §1

OR6C75 (Homo sapiens) = molecular target: T11, OR6C75 (Homo sapiens) (UniProt A6NL08)
T11 sequence (whole entry): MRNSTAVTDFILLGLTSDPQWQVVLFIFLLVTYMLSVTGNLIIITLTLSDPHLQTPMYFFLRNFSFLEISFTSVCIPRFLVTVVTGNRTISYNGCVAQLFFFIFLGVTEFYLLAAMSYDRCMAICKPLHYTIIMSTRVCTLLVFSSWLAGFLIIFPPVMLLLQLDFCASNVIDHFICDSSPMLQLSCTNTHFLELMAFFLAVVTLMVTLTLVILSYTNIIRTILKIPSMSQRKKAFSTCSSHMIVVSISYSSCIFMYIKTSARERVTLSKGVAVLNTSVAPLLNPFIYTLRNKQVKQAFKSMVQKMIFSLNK
In short: as §1

OR6C76 (Homo sapiens) = molecular target: T12, OR6C76 (Homo sapiens) (UniProt A6NM76)
T12 sequence (whole entry): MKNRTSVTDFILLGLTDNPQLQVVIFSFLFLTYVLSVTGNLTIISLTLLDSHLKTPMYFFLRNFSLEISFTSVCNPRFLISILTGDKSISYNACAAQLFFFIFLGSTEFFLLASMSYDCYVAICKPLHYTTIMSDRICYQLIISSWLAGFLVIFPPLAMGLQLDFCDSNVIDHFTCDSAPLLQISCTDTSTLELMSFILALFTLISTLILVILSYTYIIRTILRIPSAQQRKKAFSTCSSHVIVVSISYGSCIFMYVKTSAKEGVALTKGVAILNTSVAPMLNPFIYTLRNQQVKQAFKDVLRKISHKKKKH
In short: as §1

OR6F1 (Homo sapiens) = molecular target: T13, OR6F1 (Homo sapiens) (UniProt Q8NGZ6)
T13 sequence (whole entry): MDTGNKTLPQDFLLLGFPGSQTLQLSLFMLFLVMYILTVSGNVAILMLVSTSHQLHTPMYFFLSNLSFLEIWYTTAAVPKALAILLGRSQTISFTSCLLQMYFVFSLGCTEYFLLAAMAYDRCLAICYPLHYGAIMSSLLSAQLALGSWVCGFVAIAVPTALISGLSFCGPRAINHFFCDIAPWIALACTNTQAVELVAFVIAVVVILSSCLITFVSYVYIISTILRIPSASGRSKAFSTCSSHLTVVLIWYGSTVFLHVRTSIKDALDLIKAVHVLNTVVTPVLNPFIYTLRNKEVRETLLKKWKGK
In short: as §1

Measured: odorant receptor agonist call;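 further: active if original authors judged signal statistically different from baseline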

CC(=O)OCC=C(C)CCC=C(C)C
inactive: OR6B1 | OR6B2 | OR6B3 | OR6C1 | OR6C2 (Homo sapiens) | OR6C3 (Homo sapiens) | OR6C4 | OR6C6 (Homo sapiens) | OR6C65 (Homo sapiens) | OR6C74 (Homo sapiens) | OR6C75 (Homo sapiens) | OR6C76 (Homo sapiens) | OR6F1 (Homo sapiens)

CCCCCCCCCCC=O
inactive: OR6B1 | OR6B2 | OR6B3 | OR6C1 | OR6C2 (Homo sapiens) | OR6C3 (Homo sapiens) | OR6C4 | OR6C6 (Homo sapiens) | OR6C65 (Homo sapiens) | OR6C74 (Homo sapiens) | OR6C75 (Homo sapiens) | OR6C76 (Homo sapiens) | OR6F1 (Homo sapiens)

COc1cc(C)ccc1O
inactive: OR6B1 | OR6B2 | OR6B3 | OR6C1 | OR6C2 (Homo sapiens) | OR6C3 (Homo sapiens) | OR6C4 | OR6C6 (Homo sapiens) | OR6C65 (Homo sapiens) | OR6C74 (Homo sapiens) | OR6C75 (Homo sapiens) | OR6C76 (Homo sapiens) | OR6F1 (Homo sapiens)

CC(C)CCC(=O)O
inactive: OR6B1 | OR6B2 | OR6B3 | OR6C1 | OR6C2 (Homo sapiens) | OR6C3 (Homo sapiens) | OR6C4 | OR6C6 (Homo sapiens) | OR6C65 (Homo sapiens) | OR6C74 (Homo sapiens) | OR6C75 (Homo sapiens) | OR6C76 (Homo sapiens) | OR6F1 (Homo sapiens)

C=CC(C)(O)CCC=C(C)C (stereo not drawn)
inactive: OR6B1 | OR6B2 | OR6B3 | OR6C1 | OR6C2 (Homo sapiens) | OR6C3 (Homo sapiens) | OR6C4 | OR6C6 (Homo sapiens) | OR6C65 (Homo sapiens) | OR6C74 (Homo sapiens) | OR6C75 (Homo sapiens) | OR6C76 (Homo sapiens) | OR6F1 (Homo sapiens)

O=C1CCCCC1
inactive: OR6B1 | OR6B2 | OR6B3 | OR6C1 | OR6C2 (Homo sapiens) | OR6C3 (Homo sapiens) | OR6C4 | OR6C6 (Homo sapiens) | OR6C65 (Homo sapiens) | OR6C74 (Homo sapiens) | OR6C75 (Homo sapiens) | OR6C76 (Homo sapiens) | OR6F1 (Homo sapiens)

CC(C)C=O
inactive: OR6B1 | OR6B2 | OR6B3 | OR6C1 | OR6C2 (Homo sapiens) | OR6C3 (Homo sapiens) | OR6C4 | OR6C6 (Homo sapiens) | OR6C65 (Homo sapiens) | OR6C74 (Homo sapiens) | OR6C75 (Homo sapiens) | OR6C76 (Homo sapiens) | OR6F1 (Homo sapiens)

2 compounds drawn at random from those above, as already listed:
CC(C)CCC(=O)O
inactive: OR6B1 | OR6B2 | OR6B3 | OR6C1 | OR6C2 (Homo sapiens) | OR6C3 (Homo sapiens) | OR6C4 | OR6C6 (Homo sapiens) | OR6C65 (Homo sapiens) | OR6C74 (Homo sapiens) | OR6C75 (Homo sapiens) | OR6C76 (Homo sapiens) | OR6F1 (Homo sapiens)

COc1cc(C)ccc1O
inactive: OR6B1 | OR6B2 | OR6B3 | OR6C1 | OR6C2 (Homo sapiens) | OR6C3 (Homo sapiens) | OR6C4 | OR6C6 (Homo sapiens) | OR6C65 (Homo sapiens) | OR6C74 (Homo sapiens) | OR6C75 (Homo sapiens) | OR6C76 (Homo sapiens) | OR6F1 (Homo sapiens)

The results go on:

CCCCCCCC=O
inactive: OR6B1 | OR6B2 | OR6B3 | OR6C1 | OR6C2 (Homo sapiens) | OR6C3 (Homo sapiens) | OR6C4 | OR6C6 (Homo sapiens) | OR6C65 (Homo sapiens) | OR6C74 (Homo sapiens) | OR6C75 (Homo sapiens) | OR6C76 (Homo sapiens) | OR6F1 (Homo sapiens)

COC(=O)c1ccccc1O
inactive: OR6B1 | OR6B2 | OR6B3 | OR6C1 | OR6C2 (Homo sapiens) | OR6C3 (Homo sapiens) | OR6C4 | OR6C6 (Homo sapiens) | OR6C65 (Homo sapiens) | OR6C74 (Homo sapiens) | OR6C75 (Homo sapiens) | OR6C76 (Homo sapiens) | OR6F1 (Homo sapiens)

CC12C=CCC1C1CCC3=CC(=O)CCC3(C)C1CC2 (stereo not drawn)
inactive: OR6B1 | OR6B2 | OR6B3 | OR6C1 | OR6C2 (Homo sapiens) | OR6C3 (Homo sapiens) | OR6C4 | OR6C6 (Homo sapiens) | OR6C65 (Homo sapiens) | OR6C74 (Homo sapiens) | OR6C75 (Homo sapiens) | OR6C76 (Homo sapiens) | OR6F1 (Homo sapiens)

c1cnccn1
inactive: OR6B1 | OR6B2 | OR6B3 | OR6C1 | OR6C2 (Homo sapiens) | OR6C3 (Homo sapiens) | OR6C4 | OR6C6 (Homo sapiens) | OR6C65 (Homo sapiens) | OR6C74 (Homo sapiens) | OR6C75 (Homo sapiens) | OR6C76 (Homo sapiens) | OR6F1 (Homo sapiens)
